The values are deposited in ChEMBL (CHEMBL3988442, “University of Dundee, Small-Polar-MMV Screening Library” (2021)).

Amino acid sequences for entries named in this document (tags omitted). Residues count along the entry.
UniProt Q8IDJ8, 1-583: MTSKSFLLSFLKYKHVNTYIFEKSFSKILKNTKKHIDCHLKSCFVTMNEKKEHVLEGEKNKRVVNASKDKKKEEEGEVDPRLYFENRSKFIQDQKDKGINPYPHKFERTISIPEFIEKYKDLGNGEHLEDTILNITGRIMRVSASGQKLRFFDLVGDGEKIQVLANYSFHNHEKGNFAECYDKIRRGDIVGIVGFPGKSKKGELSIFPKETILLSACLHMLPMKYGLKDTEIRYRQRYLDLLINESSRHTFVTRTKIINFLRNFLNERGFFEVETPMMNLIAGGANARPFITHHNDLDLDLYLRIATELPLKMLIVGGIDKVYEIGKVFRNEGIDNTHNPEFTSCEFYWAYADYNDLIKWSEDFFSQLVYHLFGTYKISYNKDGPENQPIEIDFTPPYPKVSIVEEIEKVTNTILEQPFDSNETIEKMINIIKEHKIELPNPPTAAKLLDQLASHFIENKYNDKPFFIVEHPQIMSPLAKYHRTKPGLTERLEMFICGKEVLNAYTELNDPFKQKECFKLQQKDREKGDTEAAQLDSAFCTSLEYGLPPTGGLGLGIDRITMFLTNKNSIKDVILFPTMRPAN

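Enzyme assay of the cytosolic lysyl-tRNA synthetase in 384-well plates, read by luminescence. Target: Lysine-tRNA ligase, Plasmodium falciparum 3D7 (UniProt Q8IDJ8). Concentration: 30 µM. Higher reads as stronger inhibition, judged from the few compounds that gave an IC50. About 69,000 compounds were tested under these conditions; 0.071% (about 49) showed 50% or more at least once.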

Results are given as percent effect.
The controls that fix the scale are not given in the record; negative values are as filed.
The compounds are a random part of those screened.

With Cc1cc(C[C@@H]2CCC[C@H]2NCc2ccccc2C)on1 the screen gave 2.426%. With CN1CCn2c(-c3cnn(C)c3)cnc2C12CCN(CC1CC1)CC2 the screen gave 6.693%. COc1ccc(C(C(=O)O)N2CCN(C3CCCC3)CC2)cc1C (stereo unspecified) gave 0.3437%. CC(=O)N1CCC(c2cccc(NC3CCOCC3)n2)CC1 gave -0.2313%. Result for Cn1ncc2c(=O)[nH]c(CN3CCCC3CC3CCCCC3)nc21 (stereo unspecified) was 3.95%. With COCC(=O)N1CCC(Nc2ccnc3ccc(Cl)cc23)CC1 the screen gave 4.46%. O=C(CNC(=O)C1CC1)NCC1CCCC1 gave 2.73%. O=c1cc(CN2CC[C@@]3(O)CCCC[C@H]3C2)c2cccc3c2n1CCC3 gave 1.647%.

O=C(NCCc1ccccn1)N1CCSC2(CCCCC2)C1 gave 2.373%. For CC(Cn1cccn1)NC(=O)NCCN1CCCCCC1=O (stereo unspecified) the result was 0.9916%. Cc1cncnc1C1CCN(C(=O)C2(C)CCCCN2C)CC1 (stereo unspecified) gave -0.44%. COCCCNC(=O)Cc1nc(-c2ccncc2)n[nH]1 gave -1.387%. With COc1ccc(S(=O)(=O)NC(=O)COC2CCCC2)cc1 the screen gave 0.6804%. CN(C)CC1CSCCCN1C(=O)c1cccc(C(F)(F)F)c1 (stereo unspecified) read -1.132%. With Cc1cccc(OCC(=O)N(Cc2ccncc2)C2CC2)c1 the screen gave 5.88%. For CCCN(CCC)c1ncc(S(=O)(=O)c2cccc(C)c2)c(N)n1 the result was 3.167%.

For CC(=O)N1CCC2(CC1)CNc1ccc(F)cc12 the result was 8.414%. Cc1nc(CNc2ncc(Br)cn2)n[nH]1 read -2.316%. Result for Cc1nc(NC2CC2)c2c(n1)c(C)nn2C was 2.69%. With COC(=O)N1CCC(CNS(=O)(=O)c2cnn(C)c2)CC1 the screen gave 3.52%. Cc1ncncc1C(=O)N1CCCN(Cc2nccn2C(C)C)CC1 read 7.216%. For CCn1nc(C)c(CNC(=O)NCC(C)(O)c2ccc(C)o2)c1C (stereo unspecified) the result was 5.584%. For O=C(CCc1ccccc1)NCC1CCN(Cc2cccs2)CC1 the result was 5.873%. With COc1cc2cc3c(nc2cc1OC)OCCN(Cc1cccs1)C3 the screen gave -1.037%.

For CCOC(C(=O)N1CCn2c(CC)nnc2C1)c1ccccc1 (stereo unspecified) the result was -0.9984%. CN(CC1(CO)CCOCC1)[C@@H]1c2ccccc2C2(CCNCC2)[C@H]1O read -0.5952%. With COc1ccc(C(O)CNC(=O)Nc2cc(C)nn2C)cc1 (stereo unspecified) the screen gave -3.189%. Result for COc1cccc(NC(=O)NCc2cnn(C)c2)c1 was 1.434%. With CCC(NC1CCCC1)c1ccc(S(C)(=O)=O)cc1 (stereo unspecified) the screen gave 3.772%. O=C(N1CCCO1)[C@@]12CCO[C@@H]1CCN(C1CCCCC1)C2 gave 2.231%. For CCc1nc(C)c([C@H]2CN(C)C[C@@H]2C(=O)Nc2ccc3[nH]ncc3c2)[nH]1 the result was -1.725%. For CCCN1CCC(N(Cc2ncc(C)o2)C(C)=O)C1 (stereo unspecified) the result was 1.567%.

Result for Cn1cc(CCC(=O)NS(=O)(=O)N2CCCc3ccccc32)cn1 was 0.3071%. O=C(O)[C@@H]1CN(Cc2c[nH]c(CC3CCCC3)n2)C[C@H]1c1ccccn1 gave -2.954%. Cc1nc(N2CCCCC2)ncc1-c1cc(=O)[nH]c(N2CCCC2)n1 read 0.4528%. With CN(C)c1ncc2c(n1)CN(C1CCSCC1)C2=O the screen gave -4.849%. With COCCn1cc(NCc2c[nH]nc2-c2ccc(OC)cc2)cn1 the screen gave 3.741%. Result for COCC1CN(C(=O)c2ccco2)Cc2nccn2C1 (stereo unspecified) was 2.314%. Cc1noc(C)c1CCC(=O)N1CCOCC1CC(=O)N1CCCC1 (stereo unspecified) gave -0.4755%. Result for CSc1nc(O)c(Cc2ccccc2)c(=O)n1-c1ccccc1 was -0.9338%.

For CN(Cc1ccc(N(C)C)cc1)C(=O)NCc1nnc2n1CCC2 the result was -0.4426%.

Repeated from the top, 5 entries:

Result for Cc1cc(C[C@@H]2CCC[C@H]2NCc2ccccc2C)on1 was 2.426%.
Result for CN1CCn2c(-c3cnn(C)c3)cnc2C12CCN(CC1CC1)CC2 was 6.693%.
Result for COc1ccc(C(C(=O)O)N2CCN(C3CCCC3)CC2)cc1C (stereo unspecified) was 0.3437%.
Result for CC(=O)N1CCC(c2cccc(NC3CCOCC3)n2)CC1 was -0.2313%.
Result for Cn1ncc2c(=O)[nH]c(CN3CCCC3CC3CCCCC3)nc21 (stereo unspecified) was 3.95%.